Measurements as given in the supplement of paper PMC12823440, “Inhibitors supercharge kinase turnover through native proteolytic circuits” (Nature, 2025).
Counter-ions that a name gives are not always drawn. The list shows a part of the results. The calls rarely recur for the same compound in another form.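 In K562 cells expressing nanoluciferase-fused kinases, luminescence was recorded at 4 h intervals between 2 and 18 h, normalized as percent of control with DMSO at 100% and a positive control at 0%. A significant (2 sigma) signal drop marks a time point as decreased. The authors' rule for a hit is not shown and takes in more than the number of time points.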

The chains behind the UniProt entries cited, without tags or fusion partners. Where a name states a change or a piece, a line headed by the entry shows the natural chain unless it says otherwise.
UniProt P11362, whole entry, looked up: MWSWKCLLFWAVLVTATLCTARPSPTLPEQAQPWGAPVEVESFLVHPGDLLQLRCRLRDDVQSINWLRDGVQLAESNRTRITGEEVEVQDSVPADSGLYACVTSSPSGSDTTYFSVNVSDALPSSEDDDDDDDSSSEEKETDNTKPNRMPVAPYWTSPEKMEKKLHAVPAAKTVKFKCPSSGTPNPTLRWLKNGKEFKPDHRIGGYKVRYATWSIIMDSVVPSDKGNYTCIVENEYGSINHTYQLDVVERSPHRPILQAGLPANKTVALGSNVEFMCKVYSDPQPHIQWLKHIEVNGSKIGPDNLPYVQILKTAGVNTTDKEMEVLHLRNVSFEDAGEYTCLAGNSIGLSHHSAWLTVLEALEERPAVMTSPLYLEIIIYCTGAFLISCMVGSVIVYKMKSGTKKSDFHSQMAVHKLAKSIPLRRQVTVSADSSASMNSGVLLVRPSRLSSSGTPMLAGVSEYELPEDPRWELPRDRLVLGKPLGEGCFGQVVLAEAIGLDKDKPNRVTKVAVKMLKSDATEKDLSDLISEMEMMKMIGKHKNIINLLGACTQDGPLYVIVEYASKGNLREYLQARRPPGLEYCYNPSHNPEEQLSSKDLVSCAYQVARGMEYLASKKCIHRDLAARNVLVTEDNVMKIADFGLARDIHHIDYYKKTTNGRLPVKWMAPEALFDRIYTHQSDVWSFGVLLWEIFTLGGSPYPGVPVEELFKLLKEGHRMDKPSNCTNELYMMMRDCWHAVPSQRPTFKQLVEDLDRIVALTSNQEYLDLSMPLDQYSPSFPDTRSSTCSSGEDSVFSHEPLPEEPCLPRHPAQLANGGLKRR
UniProt P21802, whole entry, looked up: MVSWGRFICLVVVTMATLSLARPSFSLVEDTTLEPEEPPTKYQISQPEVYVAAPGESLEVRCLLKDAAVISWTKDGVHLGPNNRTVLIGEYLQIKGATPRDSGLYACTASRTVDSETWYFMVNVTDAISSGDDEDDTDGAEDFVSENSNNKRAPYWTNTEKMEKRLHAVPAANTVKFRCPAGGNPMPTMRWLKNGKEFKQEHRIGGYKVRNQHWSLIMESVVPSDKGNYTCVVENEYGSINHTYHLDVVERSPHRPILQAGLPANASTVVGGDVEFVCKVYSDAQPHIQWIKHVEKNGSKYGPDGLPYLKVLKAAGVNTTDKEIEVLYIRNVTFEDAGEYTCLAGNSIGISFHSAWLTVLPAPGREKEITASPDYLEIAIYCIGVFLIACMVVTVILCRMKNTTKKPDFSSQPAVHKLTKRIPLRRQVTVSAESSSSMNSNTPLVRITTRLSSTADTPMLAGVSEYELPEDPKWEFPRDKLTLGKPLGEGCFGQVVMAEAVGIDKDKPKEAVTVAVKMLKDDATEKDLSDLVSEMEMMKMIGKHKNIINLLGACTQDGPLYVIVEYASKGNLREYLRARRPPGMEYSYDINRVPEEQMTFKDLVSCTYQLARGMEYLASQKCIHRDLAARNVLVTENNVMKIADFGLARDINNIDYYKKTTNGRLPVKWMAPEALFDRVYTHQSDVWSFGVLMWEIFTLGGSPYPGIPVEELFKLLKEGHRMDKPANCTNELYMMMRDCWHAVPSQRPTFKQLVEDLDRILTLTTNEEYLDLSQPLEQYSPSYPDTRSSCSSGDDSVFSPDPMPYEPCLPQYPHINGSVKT
UniProt P22607, whole entry, looked up: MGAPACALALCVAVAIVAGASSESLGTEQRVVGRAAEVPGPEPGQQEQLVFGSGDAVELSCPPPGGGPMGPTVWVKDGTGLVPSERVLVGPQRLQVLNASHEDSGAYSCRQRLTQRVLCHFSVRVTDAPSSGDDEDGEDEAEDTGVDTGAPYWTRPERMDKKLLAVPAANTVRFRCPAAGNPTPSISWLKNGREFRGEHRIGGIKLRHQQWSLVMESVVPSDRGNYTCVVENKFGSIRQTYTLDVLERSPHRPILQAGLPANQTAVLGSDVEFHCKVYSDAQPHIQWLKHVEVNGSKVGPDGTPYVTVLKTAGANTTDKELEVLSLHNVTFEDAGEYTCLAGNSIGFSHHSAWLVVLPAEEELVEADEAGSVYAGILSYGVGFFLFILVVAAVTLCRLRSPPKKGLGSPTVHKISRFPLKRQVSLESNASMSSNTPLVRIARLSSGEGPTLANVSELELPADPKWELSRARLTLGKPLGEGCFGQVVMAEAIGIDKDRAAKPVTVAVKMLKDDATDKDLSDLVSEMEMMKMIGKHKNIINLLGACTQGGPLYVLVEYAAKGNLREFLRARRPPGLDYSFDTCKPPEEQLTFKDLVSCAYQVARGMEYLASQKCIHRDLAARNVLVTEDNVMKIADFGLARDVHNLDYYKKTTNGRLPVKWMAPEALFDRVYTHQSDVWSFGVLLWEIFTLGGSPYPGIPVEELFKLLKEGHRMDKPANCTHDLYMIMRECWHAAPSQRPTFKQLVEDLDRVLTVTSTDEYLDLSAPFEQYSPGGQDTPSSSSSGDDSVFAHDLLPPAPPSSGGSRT
UniProt P36888, whole entry: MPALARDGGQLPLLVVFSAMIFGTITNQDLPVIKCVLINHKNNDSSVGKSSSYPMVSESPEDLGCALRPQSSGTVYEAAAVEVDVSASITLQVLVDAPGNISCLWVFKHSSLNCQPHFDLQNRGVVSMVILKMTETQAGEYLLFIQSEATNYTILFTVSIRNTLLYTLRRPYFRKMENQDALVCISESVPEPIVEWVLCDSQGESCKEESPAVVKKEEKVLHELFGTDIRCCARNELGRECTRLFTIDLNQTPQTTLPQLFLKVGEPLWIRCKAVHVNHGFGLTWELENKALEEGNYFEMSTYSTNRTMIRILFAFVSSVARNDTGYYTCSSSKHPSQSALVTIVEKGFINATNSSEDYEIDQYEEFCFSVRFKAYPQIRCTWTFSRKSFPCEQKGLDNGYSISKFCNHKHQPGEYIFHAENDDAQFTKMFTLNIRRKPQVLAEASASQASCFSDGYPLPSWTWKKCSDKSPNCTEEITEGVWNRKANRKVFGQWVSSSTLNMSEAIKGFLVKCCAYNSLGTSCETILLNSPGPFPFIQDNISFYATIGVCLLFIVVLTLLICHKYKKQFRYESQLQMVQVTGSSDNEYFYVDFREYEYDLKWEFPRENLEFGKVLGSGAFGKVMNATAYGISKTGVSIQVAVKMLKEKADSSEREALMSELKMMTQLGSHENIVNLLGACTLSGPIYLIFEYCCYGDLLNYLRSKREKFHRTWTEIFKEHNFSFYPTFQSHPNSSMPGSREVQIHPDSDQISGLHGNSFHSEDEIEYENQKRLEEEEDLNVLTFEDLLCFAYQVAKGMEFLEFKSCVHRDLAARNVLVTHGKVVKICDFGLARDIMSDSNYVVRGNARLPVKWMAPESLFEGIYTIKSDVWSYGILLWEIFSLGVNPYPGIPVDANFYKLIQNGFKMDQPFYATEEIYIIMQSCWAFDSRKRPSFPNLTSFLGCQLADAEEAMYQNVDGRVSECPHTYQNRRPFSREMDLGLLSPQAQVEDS
UniProt P06241, whole entry, looked up: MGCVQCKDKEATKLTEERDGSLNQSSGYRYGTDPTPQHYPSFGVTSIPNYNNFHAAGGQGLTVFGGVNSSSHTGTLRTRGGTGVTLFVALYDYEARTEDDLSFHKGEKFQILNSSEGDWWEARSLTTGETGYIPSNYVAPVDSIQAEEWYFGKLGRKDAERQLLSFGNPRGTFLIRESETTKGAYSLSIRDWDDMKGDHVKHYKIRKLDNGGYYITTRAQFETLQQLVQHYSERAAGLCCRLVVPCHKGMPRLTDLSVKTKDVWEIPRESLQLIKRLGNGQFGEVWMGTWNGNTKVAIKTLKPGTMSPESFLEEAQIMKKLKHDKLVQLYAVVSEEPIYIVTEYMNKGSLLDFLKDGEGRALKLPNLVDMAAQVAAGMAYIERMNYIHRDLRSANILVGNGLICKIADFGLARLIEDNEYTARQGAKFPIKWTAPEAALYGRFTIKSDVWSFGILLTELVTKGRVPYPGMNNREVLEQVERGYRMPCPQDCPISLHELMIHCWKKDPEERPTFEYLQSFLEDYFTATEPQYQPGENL
UniProt P49840: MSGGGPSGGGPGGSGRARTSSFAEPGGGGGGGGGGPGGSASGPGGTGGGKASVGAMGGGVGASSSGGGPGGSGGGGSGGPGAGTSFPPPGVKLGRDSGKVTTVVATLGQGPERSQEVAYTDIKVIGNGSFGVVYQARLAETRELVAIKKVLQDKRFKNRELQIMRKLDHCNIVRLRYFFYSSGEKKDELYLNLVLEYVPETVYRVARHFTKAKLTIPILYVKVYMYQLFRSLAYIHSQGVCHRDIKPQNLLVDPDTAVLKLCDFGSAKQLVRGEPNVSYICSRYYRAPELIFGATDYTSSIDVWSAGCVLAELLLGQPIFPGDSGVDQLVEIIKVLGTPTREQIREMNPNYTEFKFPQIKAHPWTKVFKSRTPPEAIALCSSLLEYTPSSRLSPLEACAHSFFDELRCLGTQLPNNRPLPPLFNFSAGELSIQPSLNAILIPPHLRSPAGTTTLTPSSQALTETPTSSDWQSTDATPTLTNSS
UniProt P14616: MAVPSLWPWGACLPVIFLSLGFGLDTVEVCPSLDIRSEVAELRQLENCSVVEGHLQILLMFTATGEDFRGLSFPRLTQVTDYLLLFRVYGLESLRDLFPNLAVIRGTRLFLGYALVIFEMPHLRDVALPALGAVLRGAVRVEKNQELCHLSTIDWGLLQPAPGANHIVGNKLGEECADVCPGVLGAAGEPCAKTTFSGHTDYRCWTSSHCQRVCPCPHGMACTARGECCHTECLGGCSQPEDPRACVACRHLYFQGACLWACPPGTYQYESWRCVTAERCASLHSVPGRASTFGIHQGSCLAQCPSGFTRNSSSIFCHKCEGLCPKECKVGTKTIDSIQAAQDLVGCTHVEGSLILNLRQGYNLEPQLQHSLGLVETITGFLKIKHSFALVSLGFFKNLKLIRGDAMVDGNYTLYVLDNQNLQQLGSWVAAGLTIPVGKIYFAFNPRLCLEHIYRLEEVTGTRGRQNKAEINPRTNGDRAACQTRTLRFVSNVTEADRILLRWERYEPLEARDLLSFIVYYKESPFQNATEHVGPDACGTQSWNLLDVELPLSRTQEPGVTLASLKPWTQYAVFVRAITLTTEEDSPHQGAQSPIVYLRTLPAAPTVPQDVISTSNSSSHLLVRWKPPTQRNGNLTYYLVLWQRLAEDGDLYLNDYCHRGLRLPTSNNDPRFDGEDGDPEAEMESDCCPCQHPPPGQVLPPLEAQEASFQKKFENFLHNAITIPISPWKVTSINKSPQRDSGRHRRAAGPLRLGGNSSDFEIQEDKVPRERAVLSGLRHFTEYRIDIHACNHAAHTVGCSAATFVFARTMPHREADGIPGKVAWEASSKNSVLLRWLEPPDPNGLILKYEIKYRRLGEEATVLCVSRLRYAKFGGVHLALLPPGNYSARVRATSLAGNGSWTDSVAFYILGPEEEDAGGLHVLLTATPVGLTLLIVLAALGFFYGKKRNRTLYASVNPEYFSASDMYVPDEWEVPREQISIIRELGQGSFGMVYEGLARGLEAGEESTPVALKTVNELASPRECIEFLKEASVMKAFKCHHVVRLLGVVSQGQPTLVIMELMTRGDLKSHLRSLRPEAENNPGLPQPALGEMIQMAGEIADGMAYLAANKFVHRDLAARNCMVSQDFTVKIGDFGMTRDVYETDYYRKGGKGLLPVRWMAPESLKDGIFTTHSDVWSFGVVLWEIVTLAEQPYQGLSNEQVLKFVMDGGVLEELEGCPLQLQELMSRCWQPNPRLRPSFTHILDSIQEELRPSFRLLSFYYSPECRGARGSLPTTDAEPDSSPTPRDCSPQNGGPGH

Key:
Assay in all cases: kinase-Nluc reporter destabilization hit call (1 = scored as downregulated) (binary); higher = compound decreases kinase abundance
Conditions in all cases: K562; 2-18 h
ERN1 = ERN1 (UniProt O75460)
FGFR1 = FGFR1 (UniProt P11362)
FGFR2 = FGFR2 (UniProt P21802)
FGFR3 = FGFR3 (UniProt P22607)
FGR = FGR (UniProt P09769)
FLT3 = FLT3 (UniProt P36888)
FYN = FYN (UniProt P06241)
GSK3A = GSK3A (UniProt P49840)
HER2 = HER2 (UniProt P04626)
INSRR = INSRR (UniProt P14616)

Measured: kinase-Nluc reporter destabilization hit call

Cc1cc(Nc2nc(N[C@@H](C)c3ncc(F)cn3)ncc2Cl)[nH]n1 (10 µM)
inactive: ERN1 = 0 | FGFR1 = 0 | FGFR2 = 0 | FGFR3 = 0 | FGR 0 | FLT3 = 0 | FYN 0 | GSK3A 0 | HER2 = 0 | INSRR 0

CC(C)(C)c1cc(C(c2cc3c(cc2O)OCO3)N2CCOCC2)cc(C(C)(C)C)c1O (stereo not given) (2.5 µM)
inactive: ERN1 = 0 | FGFR1 = 0 | FGFR2 = 0 | FGFR3 = 0 | FGR 0 | FLT3 = 0 | FYN 0 | GSK3A 0 | HER2 = 0 | INSRR 0

CCOc1nc(Nc2ccc(C(=O)N3CCOCC3)cc2OC)nc2[nH]ccc12 [LRRK2 inhibitor 1] (2.5 µM)
inactive: ERN1 = 0 | FGFR1 = 0 | FGFR2 = 0 | FGFR3 = 0 | FGR 0 | FLT3 = 0 | FYN 0 | GSK3A 0 | HER2 = 0 | INSRR 0

CCN1C(=O)CNc2ncc(-c3ccc(-c4nc[nH]n4)nc3C)nc21 [CC-115 (hydrochloride)] (2.5 µM)
inactive: ERN1 = 0 | FGFR1 = 0 | FGFR2 = 0 | FGFR3 = 0 | FGR 0 | FLT3 = 0 | FYN 0 | GSK3A 0 | HER2 = 0 | INSRR 0

N=C(N)NC(=N)NCCc1ccccc1 [Phenformin (hydrochloride)] (10 µM)
inactive: ERN1 = 0 | FGFR1 = 0 | FGFR2 = 0 | FGFR3 = 0 | FGR 0 | FLT3 = 0 | FYN 0 | GSK3A 0 | HER2 = 0 | INSRR 0

Three compounds out of the list, arranged by heavy-atom count, low to high:
N=C(N)NC(=N)NCCc1ccccc1 [Phenformin (hydrochloride)] (10 µM)
inactive: ERN1 = 0 | FGFR1 = 0 | FGFR2 = 0 | FGFR3 = 0 | FGR 0 | FLT3 = 0 | FYN 0 | GSK3A 0 | HER2 = 0 | INSRR 0

Cc1cc(Nc2nc(N[C@@H](C)c3ncc(F)cn3)ncc2Cl)[nH]n1 (10 µM)
inactive: ERN1 = 0 | FGFR1 = 0 | FGFR2 = 0 | FGFR3 = 0 | FGR 0 | FLT3 = 0 | FYN 0 | GSK3A 0 | HER2 = 0 | INSRR 0

CC(C)(C)c1cc(C(c2cc3c(cc2O)OCO3)N2CCOCC2)cc(C(C)(C)C)c1O (stereo not given) (2.5 µM)
inactive: ERN1 = 0 | FGFR1 = 0 | FGFR2 = 0 | FGFR3 = 0 | FGR 0 | FLT3 = 0 | FYN 0 | GSK3A 0 | HER2 = 0 | INSRR 0

(cont.)

CC[C@@H](N)CNc1ccnc(-c2cc(-c3cnn(C)c3)ccc2O)n1 (2.5 µM)
inactive: ERN1 = 0 | FGFR1 = 0 | FGFR2 = 0 | FGFR3 = 0 | FGR 0 | FLT3 = 0 | FYN 0 | GSK3A 0 | HER2 = 0 | INSRR 0

CC(=O)NCCc1c[nH]c2ccc(O)cc12 [N-Acetyl-5-hydroxytryptamine] (10 µM)
inactive: ERN1 = 0 | FGFR1 = 0 | FGFR2 = 0 | FGFR3 = 0 | FGR 0 | FLT3 = 0 | FYN 0 | GSK3A 0 | HER2 = 0 | INSRR 0

CC(C)N(C)c1nc2cc(C(=O)O)ccc2nc1-c1ccc(F)cc1 (10 µM)
inactive: ERN1 = 0 | FGFR1 = 0 | FGFR2 = 0 | FGFR3 = 0 | FGR 0 | FLT3 = 0 | FYN 0 | GSK3A 0 | HER2 = 0 | INSRR 0

Cn1ncc(Cl)c1-c1cc(C(=O)N[C@H](CN)Cc2ccc(F)c(F)c2)sc1Cl (10 µM)
inactive: ERN1 = 0 | FGFR1 = 0 | FGFR2 = 0 | FGFR3 = 0 | FGR 0 | FLT3 = 0 | FYN 0 | GSK3A 0 | HER2 = 0 | INSRR 0

Cc1cc(C(C)Nc2ccccc2)c2nc(N3CCOCC3)cc(=O)n2c1 (stereo not given) (10 µM)
inactive: ERN1 = 0 | FGFR1 = 0 | FGFR2 = 0 | FGFR3 = 0 | FGR 0 | FLT3 = 0 | FYN 0 | GSK3A 0 | HER2 = 0 | INSRR 0

Cn1cc(-c2ccc(F)c(C(F)(F)F)c2)nc1C1CCN(c2ncnc3[nH]ncc23)CC1 (10 µM)
inactive: ERN1 = 0 | FGFR1 = 0 | FGFR2 = 0 | FGFR3 = 0 | FGR 0 | FLT3 = 0 | FYN 0 | GSK3A 0 | HER2 = 0 | INSRR 0

CCC(C)(C)C(=O)N(O)Cc1ccccc1 (10 µM)
inactive: ERN1 = 0 | FGFR1 = 0 | FGFR2 = 0 | FGFR3 = 0 | FGR 0 | FLT3 = 0 | FYN 0 | GSK3A 0 | HER2 = 0 | INSRR 0

Nc1ncc(-c2ccc(C(=O)N3CCNCC3)cc2)nc1-c1ccc(C(F)(F)F)cc1 (10 µM)
inactive: ERN1 = 0 | FGFR1 = 0 | FGFR2 = 0 | FGFR3 = 0 | FGR 0 | FLT3 = 0 | FYN 0 | GSK3A 0 | HER2 = 0 | INSRR 0

O=C1NC(=O)C(c2cn(-c3ccccc3)nc2-c2ccc(F)cc2)N1 (stereo not given) (10 µM)
inactive: ERN1 = 0 | FGFR1 = 0 | FGFR2 = 0 | FGFR3 = 0 | FGR 0 | FLT3 = 0 | FYN 0 | GSK3A 0 | HER2 = 0 | INSRR 0

CC[C@@H]1C(=O)N(C)c2cnc(Nc3ccc(C(=O)N[C@H]4CC[C@H](N5CCN(CC6CC6)CC5)CC4)cc3OC)nc2N1C(C)C [Volasertib] (2.5 µM)
inactive: ERN1 = 0 | FGFR1 = 0 | FGFR2 = 0 | FGFR3 = 0 | FGR 0 | FLT3 = 0 | FYN 0 | GSK3A 0 | HER2 = 0 | INSRR 0

NS(=O)(=O)c1ccc(N2N=C(c3ccccc3)CC2c2ccccc2)cc1 (stereo not given) (10 µM)
inactive: ERN1 = 0 | FGFR1 = 0 | FGFR2 = 0 | FGFR3 = 0 | FGR 0 | FLT3 = 0 | FYN 0 | GSK3A 0 | HER2 = 0 | INSRR 0

CC(C)(O)[C@@H]1CC[C@](C)([C@H]2[C@@H](O)C[C@@]3(C)[C@@H]4C[C@H](O[C@@H]5O[C@H](CO)[C@@H](O)[C@H](O)[C@H]5O)[C@H]5C(C)(C)[C@@H](O[C@@H]6OC[C@@H](O)[C@H](O)[C@H]6O[C@@H]6O[C@H](CO)[C@@H](O)[C@H](O)[C@H]6O)CC[C@@]56C[C@@]46CC[C@]23C)O1 [Astragaloside VI] (10 µM)
inactive: ERN1 = 0 | FGFR1 = 0 | FGFR2 = 0 | FGFR3 = 0 | FGR 0 | FLT3 = 0 | FYN 0 | GSK3A 0 | HER2 = 0 | INSRR 0

OCCN(CCO)c1ccc(C(c2ccc(Cl)cc2)c2ccc(N(CCO)CCO)cc2)cc1 (10 µM)
inactive: ERN1 = 0 | FGFR1 = 0 | FGFR2 = 0 | FGFR3 = 0 | FGR 0 | FLT3 = 0 | FYN 0 | GSK3A 0 | HER2 = 0 | INSRR 0

COc1ccc2c(=O)c(-c3ccccc3)coc2c1 [7-Methoxyisoflavone] (10 µM)
inactive: ERN1 = 0 | FGFR1 = 0 | FGFR2 = 0 | FGFR3 = 0 | FGR 0 | FLT3 = 0 | FYN 0 | GSK3A 0 | HER2 = 0 | INSRR 0

CN1C(=O)NC(Cc2c[nH]c3c(Cl)cccc23)C1=O (racemic) [Necrostatin 2 (racemate)] (10 µM)
inactive: ERN1 = 0 | FGFR1 = 0 | FGFR2 = 0 | FGFR3 = 0 | FGR 0 | FLT3 = 0 | FYN 0 | GSK3A 0 | HER2 = 0 | INSRR 0

CNC(=O)c1ccc(-c2cnc3cnc(-c4ccccc4)cn23)cc1 (10 µM)
inactive: ERN1 = 0 | FGFR1 = 0 | FGFR2 = 0 | FGFR3 = 0 | FGR 0 | FLT3 = 0 | FYN 0 | GSK3A 0 | HER2 = 0 | INSRR 0

N#C/C(=C(/N)Sc1ccc(N)cc1)c1ccccc1C(F)(F)F (10 µM)
inactive: ERN1 = 0 | FGFR1 = 0 | FGFR2 = 0 | FGFR3 = 0 | FGR 0 | FLT3 = 0 | FYN 0 | GSK3A 0 | HER2 = 0 | INSRR 0

O=C(O)c1ccccc1Nc1cccc(C(F)(F)F)c1 [Flufenamic acid] (10 µM)
inactive: ERN1 = 0 | FGFR1 = 0 | FGFR2 = 0 | FGFR3 = 0 | FGR 0 | FLT3 = 0 | FYN 0 | GSK3A 0 | HER2 = 0 | INSRR 0

C[C@H]1[C@H](OC(=O)CCC(=O)O)O[C@@H]2O[C@@]3(C)CC[C@H]4[C@H](C)CC[C@@H]1[C@@]24OO3 [Artesunate] (2.5 µM)
inactive: ERN1 = 0 | FGFR1 = 0 | FGFR2 = 0 | FGFR3 = 0 | FGR 0 | FLT3 = 0 | FYN 0 | GSK3A 0 | HER2 = 0 | INSRR 0

N#C/C(=C\c1ccc2oc(=O)[nH]c2c1)C(=O)c1ccc(O)c(O)c1 (10 µM)
inactive: ERN1 = 0 | FGFR1 = 0 | FGFR2 = 0 | FGFR3 = 0 | FGR 0 | FLT3 = 0 | FYN 0 | GSK3A 0 | HER2 = 0 | INSRR 0

COc1nc(-c2ccnc(NC(=O)C3CC3)c2)sc1C(N)=O [GSK-3β inhibitor 2] (10 µM)
inactive: ERN1 = 0 | FGFR1 = 0 | FGFR2 = 0 | FGFR3 = 0 | FGR 0 | FLT3 = 0 | FYN 0 | GSK3A 0 | HER2 = 0 | INSRR 0

Nc1cc(C(F)F)c(-c2nc(N3C4CCC3COC4)nc(N3C4CCC3COC4)n2)cn1 (2.5 µM)
inactive: ERN1 = 0 | FGFR1 = 0 | FGFR2 = 0 | FGFR3 = 0 | FGR 0 | FLT3 = 0 | FYN 0 | GSK3A 0 | HER2 = 0 | INSRR 0

CCc1cccc(CC)c1NC(=O)c1nn(C)c2c1CCc1cnc(Nc3ccc(C(=O)NC4CCN(C)CC4)cc3OC(F)(F)F)nc1-2 (2 µM)
inactive: ERN1 = 0 | FGFR1 = 0 | FGFR2 = 0 | FGFR3 = 0 | FGR 0 | FLT3 = 0 | FYN 0 | GSK3A 0 | HER2 = 0 | INSRR 0

O=c1nc(N2CCOCC2)oc2c(-c3cccc4c3sc3ccccc34)cccc12 (10 µM)
inactive: ERN1 = 0 | FGFR1 = 0 | FGFR2 = 0 | FGFR3 = 0 | FGR 0 | FLT3 = 0 | FYN 0 | GSK3A 0 | HER2 = 0 | INSRR 0
